Values joined by “and” are separate entries in the source; they are usually repeats but may differ in a detail not shown here. Equal values may be shown once. The list shows a part of the results. Further columns of the screen follow, without active or inactive calls. Most of these compounds were active or inconclusive in the main read-out, so they are no random draw. The note in brackets gives the kind of curve behind each potency; many fits are weak.
Test: qHTS Assay for Modulators of Lamin A Splicing
Conditions: HeLa LMNA splicing GFP/RFP minigene ratio, 48 h
Summary of the method: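 Read-out is the ratio of GFP to DsRed2 object intensity, acquired by 488 nm laser-scanning cytometry on HeLa lamin A-EGFP minigene reporter cells. Compound incubation 48 hrs at 37 °C in Opti-MEM with 2% FBS; DMSO 0.5% final.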

[1] = measured here: RFP viability control channel
[2] = measured here: GFP splicing reporter channel

| SMILES | AC50 [1] | AC50 [2] |
| --- | --- | --- |
| O=S(=O)(c1ccc(Cl)cc1)n1c(Cc2ccccc2)nc2ccccc21 | 20 µM [rising, single point] | – |
| O=C(NC1CC1)C1CCC(=O)N1C1CCCC1 (configuration not stated) | – | 5.01 µM [rising, single point] |
| CCCCCCNCc1ccc(Br)cc1 | 35.5 µM [rising, single point] | – |
| COC(=O)c1ccc(NS(=O)(=O)c2ccc3[nH]c4c(c3c2)CCCCC4)cc1 | 12.6 µM [falling, partial curve] | 20 µM [falling, partial curve] |
| COC(=O)c1ccc(CSc2nnc(C)s2)cc1 | 0.891 µM [rising, full curve, poor fit] | 0.891 µM [rising, full curve, poor fit] |
| CCCCNC(=O)c1sc2nc(C)cc(COC)c2c1-n1cccc1 | 12.6 µM [rising, partial curve, poor fit] | – |
| Cn1cc[nH]c1=S | 0.002 µM [falling, full curve, poor fit] | 0.002 µM [falling, full curve, poor fit] |
| COc1ccc(-c2nc3ccccc3c(=O)n2CCOc2cc(C)ccc2C)cc1 | 1.58 µM [rising, single point] | – |
| Cc1ccc(CNC(=O)c2ccc3c(c2)NC(=O)C(CS(=O)(=O)Cc2cccc(F)c2)N3)cc1 (configuration not stated) | 0.178 µM [falling, partial curve, poor fit] | 0.316 µM [falling, full curve, poor fit] |
| O=C(Nc1nc2c(F)cccc2s1)c1ccc2c(c1)OCCO2 | 31.6 µM [rising, single point] | – |
| O=S(=O)(c1ccc(Cl)cc1)N1CCCC(C(F)(F)F)C1 (configuration not stated) | – | 0.282 µM [rising, full curve, poor fit] |
| COc1cc(COCC(O)CN2CCN(CCN3C(=O)c4cccc5cccc(c45)C3=O)CC2)cc(OC)c1OC (configuration not stated) | 17.8 µM [rising, single point] | 14.1 µM [rising, single point] |
| O=C(CSCc1ccccc1Cl)N/N=C/c1ccco1 | – | 5.62 µM [rising, single point] |
| CCc1cc[n+](-c2nc3ccccc3nc2[N-]S(=O)(=O)c2ccc(Br)s2)cc1 | 11.2 µM [rising, single point] | – |
| O=C(NNS(=O)(=O)c1ccc2ccccc2c1)c1cccnc1 | 17.8 µM [rising, single point] | 11.2 µM [rising, partial curve, poor fit] |
| O=C(c1c[nH]c(C(=O)C(Cl)(Cl)Cl)c1)c1ccc(F)cc1Cl | 31.6 µM [falling, single point] | – |
| CCc1cc(SC#N)cc(C)c1NC(=O)CCl | 10 µM [falling, partial curve] | – |
| CC12CCC(C(=O)Nc3c(Cl)cccc3Cl)(C(Br)C1=O)C2(C)C (configuration not stated) | 35.5 µM [rising, single point] | – |

| SMILES | AC50 [1] | AC50 [2] |
| --- | --- | --- |
| COc1ccc(-c2nc3n(n2)C(c2ccccc2)C(C(=O)Nc2cccnc2)=C(C)N3)cc1 (configuration not stated) | – | 14.1 µM [falling, single point] |
| CN1CCN(CC(=O)N2c3ccccc3C(=O)Nc3cccnc32)CC1 | 126 nM [rising, full curve, poor fit] and 22.4 µM [falling, partial curve] and 17.8 µM [rising, single point] | 39.8 nM [falling, full curve, poor fit] and 3.98 nM [falling, full curve, poor fit] |
| Cc1c(C(=O)NCc2ccc(Cl)cc2)sc2nc3n(c(=O)c12)CCC3 | 31.6 µM [rising, single point] | – |
| COc1ccc(NC(C)C(=O)N/N=C/c2cc(Br)ccc2OC)cc1 (configuration not stated) | 3.16 µM [falling, partial curve, poor fit] | – |
| CC(C)(C)SCCNC(=O)c1cccc([N+](=O)[O-])c1 | 15.8 µM [rising, single point] | 12.6 µM [rising, single point] |
| CCc1cc[n+](-c2nc([O-])sc2C=O)cc1 | 0.141 µM [falling, partial curve, poor fit] | – |
| CO/C=C\C=C/c1nnn(-c2ccc(Cl)cc2)n1 | 0.0891 µM [falling, full curve, poor fit] | – |
| Cc1nc(NC(=O)CSc2cc(C)c3ccccc3n2)c(Cl)cc1Cl | 12.6 µM [rising, partial curve, poor fit] | – |
| N#CC(=C=[N-])C1=C(C#N)C(c2ccccc2F)C([n+]2ccccc2)C(O)(C2CC2)N1 (configuration not stated) | 4.47 µM [falling, partial curve] | 5.62 µM [falling, single point] |
| COc1ccc(-c2csc(NC(=S)NC(=O)/C=C/c3ccco3)n2)cc1Br | 25.1 µM [falling, single point] | – |
| Cc1cc(C)nc(NC(=O)c2c(-c3ccccc3Cl)noc2C)c1 | 31.6 µM [rising, single point] | 12.6 µM [rising, partial curve] |
| COC(=O)c1c(NC(=O)c2ccccc2)sc(C(N)=O)c1C | – | 3.98 µM [rising, single point] |
| CS(=O)(=O)Nc1cccc(C2=NN(S(C)(=O)=O)C(c3ccc4c(c3)OCO4)C2)c1 (configuration not stated) | 17.8 µM [rising, single point] | 12.6 µM [rising, single point] |
| COC(=O)c1ccc2c(=O)n(CCCCCC(=O)N3CCN(c4cccc(C)c4C)CC3)c(=O)[nH]c2c1 | 0.00316 µM [falling, full curve, poor fit] | 0.00355 µM [falling, full curve, poor fit] |
| CC(=O)c1cccc(NC(=O)C2C(c3ccccc3)C2(Cl)Cl)c1 (configuration not stated) | 2.24 µM [rising, full curve, poor fit] | – |
| S=C(NCc1ccco1)NCC1CCCO1 (configuration not stated) | 17.8 µM [falling, single point] | – |
| CCCC(c1nnnn1C1CCCC1)N1CCN(c2ccccc2F)CC1 (configuration not stated) | 0.112 µM [falling, full curve, poor fit] | – |

Some of these compounds in order of count of non-hydrogen atoms, ascending.

| SMILES | AC50 [1] | AC50 [2] |
| --- | --- | --- |
| CO/C=C\C=C/c1nnn(-c2ccc(Cl)cc2)n1 | 0.0891 µM [falling, full curve, poor fit] | – |
| Cc1nc(NC(=O)CSc2cc(C)c3ccccc3n2)c(Cl)cc1Cl | 12.6 µM [rising, partial curve, poor fit] | – |
| CN1CCN(CC(=O)N2c3ccccc3C(=O)Nc3cccnc32)CC1 | 126 nM [rising, full curve, poor fit] and 22.4 µM [falling, partial curve] and 17.8 µM [rising, single point] | 39.8 nM [falling, full curve, poor fit] and 3.98 nM [falling, full curve, poor fit] |

— PubChem BioAssay AID1487 (National Center for Advancing Translational Sciences (NCATS), 2009)
